Measurements published in the supplement of paper PMC7024190.
Counter-ions that a name gives are not always drawn. The list shows a part of the results. This data set is noisy: repeats of one test often differ as much as different tests do.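 A first-round screen of about ten thousand compounds sought those raising reporter output, using human embryonic kidney cells briefly transfected with a plasmid carrying a Renilla luciferase gene driven by the HSV-TK promoter.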

Test system: HEK 293FT
Assay: log relative Renilla luciferase luminescence (reporter expression vs reference, reference not stated) (log (base not stated)); higher = higher recombinant reporter expression
Settings: 10 µM; time after transfection 48 h

| SMILES | log |
| --- | --- |
| [O-][n+]1cccc(CO)c1 [mepiroxol] | 0.0256 |
| Cc1ccnc(NS(=O)(=O)c2ccc(N)cc2)n1 [sulfamerazine] | 0.14 |
| CC(C)n1c(/C=C/C(O)CC(O)CC(=O)O)c(-c2ccc(F)cc2)c2ccccc21 (centres undefined) [fluvastatin] | -0.0585 |
| O=c1ccn([C@@H]2O[C@H](CO)[C@@H](O)[C@H]2O)c(=O)[nH]1 [uridine] | -0.032 |
| CCCCNc1cc(C(=O)O)cc(S(N)(=O)=O)c1Oc1ccccc1 [bumetanide] | 0.126 |
| C[C@H](Cn1cnc2c(N)ncnc21)OCP(=O)(O)O [tenofovir] | 0.109 |
| CC(=O)Oc1cc2c(c(C)c1OC(C)=O)CC=C1[C@@]2(C)CC[C@@]2(C)C3C[C@](C)(C(=O)O)CC[C@]3(C)CC[C@]12C (some centres undefined) [dihydrocelastryl diacetate] | -0.168 |
| CC(=O)Oc1ccccc1C(=O)Oc1ccccc1C(=O)O [diplosalsalate] | 0.0419 |
| COC(=O)C1=C(C)NC(C)=C(C(=O)OC)C1c1ccccc1[N+](=O)[O-] [nifedipine] | -0.171 |
| CCC(=O)O[C@H](CC(=O)O)C[N+](C)(C)C [levocarnitine propionate hydrochloride] | 0.0918 |
| Clc1ccccc1CN1CCc2sccc2C1 [ticlopidine hydrochloride] | 0.0982 |
| Cc1cc(OC(=O)c2c(C)cc(O)cc2O)cc(O)c1C(=O)O [lecanoric acid] | -0.00213 |
| Cc1cc(C(C)(C)CC(C)(C)C)ccc1OCCOCC[N+](C)(C)Cc1ccccc1 [methylbenzethonium chloride] | -0.442 |
| Cc1cc(NC(=O)C2=C(O)c3ccccc3S(=O)(=O)N2C)no1 [isoxicam] | 0.0529 |
| CN(C)CCCN1c2ccccc2CCc2ccc(Cl)cc21 [clomipramine hydrochloride] | 0.0318 |
| CO[C@@]1(NC(=O)C2SC(=C(C(N)=O)C(=O)O)S2)C(=O)N2C(C(=O)O)=C(CSc3nnnn3C)CS[C@@H]21 (some centres undefined) [cefotetan] | -0.0784 |
| C#C[C@]1(OC(C)=O)CC[C@H]2[C@@H]3CCC4=C[C@@H](OC(C)=O)CC[C@@H]4[C@H]3CC[C@@]21C [ethynodiol diacetate] | -0.0385 |
| C[C@@H]1CC[C@@]2(OC1)O[C@H]1C[C@H]3[C@@H]4CC[C@H]5C[C@@H](O)CC[C@]5(C)[C@H]4CC[C@]3(C)[C@H]1[C@@H]2C [tigogenin] | 0.0578 |
| Nc1ccc(S(=O)(=O)Nc2ncccn2)cc1 [sulfadiazine] | 0.0843 |
| CO[C@@]1(NC(=O)C(C(=O)O)c2ccc(O)cc2)C(=O)N2C(C(=O)O)=C(CSc3nnnn3C)CO[C@@H]21 (some centres undefined) [moxalactam disodium] | 0.0138 |
| O=c1c(O)c(-c2ccccc2)oc2ccccc12 [3-hydroxyflavone] | -0.0117 |
| C#C[C@]1(O)CC[C@H]2[C@@H]3CCC4=CC(=O)CC[C@@H]4[C@H]3CC[C@@]21C [norethindrone] | -0.0573 |
| O=C1CC[C@@H](C(=O)O)N1 [pidolic acid] | 0.0284 |
| CC(C)[C@@H]1CC[C@@H](C)C[C@H]1O [levomenthol] | 0.0857 |
| CC[C@@]1(O)C(=O)OCc2c1cc1n(c2=O)Cc2cc3cc(O)ccc3nc2-1 [10-hydroxycamptothecin] | -0.321 |

| SMILES | log |
| --- | --- |
| NS(=O)(=O)c1cc2c(cc1Cl)N=C(CSCc1ccccc1)NS2(=O)=O [benzthiazide] | -0.0821 |
| CC(=O)OC/C=C(C)/C=C/C=C(C)/C=C/C1=C(C)CCCC1(C)C [retinyl acetate] | -0.0121 |
| O=C1C(CC[S+]([O-])c2ccccc2)C(=O)N(c2ccccc2)N1c1ccccc1 (centres undefined) [sulfinpyrazone] | -0.0693 |
| OC[C@@H](O)[C@@H](O)CO [erythritol] | 0.077 |
| N=c1ccn2c(n1)O[C@H]1[C@H](O)[C@@H](CO)O[C@H]12 [ancitabine hydrochloride] | -0.126 |
| CC(=O)Oc1c(C)cccc1C(=O)O [cresopirine] | 0.082 |
| CCOc1cc(NC(C)=O)ccc1C(=O)OC [ethopabate] | -0.0845 |
| O=c1[nH]cc(F)c(=O)[nH]1 [fluorouracil] | 0.0615 |
| O=C(O)c1cc(=O)c2cccc(O)c2[nH]1 [xanthurenic acid] | -0.0119 |
| C[C@]12C=CC(=O)C=C1CC[C@@H]1[C@@H]2[C@@H](O)C[C@@]2(C)[C@H]1CC[C@]2(O)C(=O)CO [prednisolone] | -0.0693 |
| CC(C)Cc1ccc([C@H](C)C(=O)O)cc1 [dexibuprofen] | -0.0526 |
| CS(=O)(=O)c1ccc([C@@H](O)[C@@H](CO)NC(=O)C(Cl)Cl)cc1 [thiamphenicol] | 0.0444 |
| O=C(O)Cc1ccccc1Nc1c(Cl)cccc1Cl [diclofenac sodium] | -0.108 |
| O=C(Nc1cc(Cl)cc(Cl)c1O)c1c(O)c(Cl)cc(Cl)c1Cl [oxyclozanide] | -0.922 |
| C[C@@H](c1ncncc1F)[C@](O)(Cn1cncn1)c1ccc(F)cc1F [voriconazole] | -1.08 |
| O=c1cc(-c2cc(O)c(O)c(O)c2)oc2cc(O)cc(O)c12 [hieracin] | 0.00789 |
| C[C@@H]1O[C@@H](Oc2c(-c3ccc(O)c(O)c3)oc3cc(O)cc(O)c3c2=O)[C@H](O)[C@H](O)[C@H]1O [quercitrin] | -0.0723 |
| C[C@@H]1CC(=O)NN=C1c1ccc(NN=C(C#N)C#N)cc1 [levosimendan] | -0.0919 |
| N[C@H](Cc1ccccc1)C(=O)O [d-phenylalanine] | 0.0832 |
| O=C1C=CC(=C(c2ccc(O)cc2)c2ccc(O)cc2)C=C1 [rosolic acid] | 0.162 |
| CCCc1nc(C)c2c(O)nc(-c3cc(S(=O)(=O)N4CCN(CC)CC4)ccc3OCC)nn12 [vardenafil hydrochloride] | -0.0187 |
| COc1cc2c(cc1OC)-c1cc3ccc(OC)c(OC)c3c[n+]1CC2 [palmatine] | -0.536 |
| COc1cc2c(cc1OC)-c1cc3ccc(OC)c(OC)c3c[n+]1CC2 [palmatine chloride] | 0.24 |
| COC(=O)[C@H]1[C@H]2C[C@@H]3c4[nH]c5cc(OC)ccc5c4CCN3C[C@H]2C[C@@H](OC(=O)c2cc(OC)c(OC)c(OC)c2)[C@@H]1OC [reserpine] | -0.0449 |

Given field by field: part of the list above
CS(=O)(=O)c1ccc([C@@H](O)[C@@H](CO)NC(=O)C(Cl)Cl)cc1 [thiamphenicol]
  log: 0.0444
C[C@@H](c1ncncc1F)[C@](O)(Cn1cncn1)c1ccc(F)cc1F [voriconazole]
  log: -1.08
O=c1cc(-c2cc(O)c(O)c(O)c2)oc2cc(O)cc(O)c12 [hieracin]
  log: 0.00789

2 entries picked at random from the list so far:

| SMILES | log |
| --- | --- |
| CCOc1cc(NC(C)=O)ccc1C(=O)OC [ethopabate] | -0.0845 |
| O=C1C(CC[S+]([O-])c2ccccc2)C(=O)N(c2ccccc2)N1c1ccccc1 (centres undefined) [sulfinpyrazone] | -0.0693 |
